This assay addresses EGFR (human (endogenous in KBv200 and MCF-7/adr)) (UniProt P00533). Nature of the assay: co-IP; KBv200 and MCF-7/adr cells treated with a range of concentrations of cetuximab for 48 h, lysed in RIPA; precleared lysate (1 mg total protein) incubated with 2 ug anti-EGFR antibody or anti-IgG antibody, protein G-agarose overnight at 4 C; Western blot with anti-ABCB1.

This is an account of results in PMC4747373.

No constants are given. Whether binding was seen depends on the method and setting. Binding seen in cells or lysates may run through a third protein.

With “ABCB1/P-glycoprotein (from UniProt P08183 1-1280)”, the binding result is reported as “no binding”.
